Results reported in US20180057558 (published 2018).
Square brackets hold non-standard residues; d marks the D form. * marks the point of attachment. His(Trt) = N[C@@H](Cc1cn(C(c2ccccc2)(c2ccccc2)c2ccccc2)cn1)C(=O)O; Boc = CC(C)(C)OC(=O)*; OtBu = CC(C)(C)O*

Legend:
[1] = general procedure: hybrid (solid and solution phase) peptide synthesis; CTC resin (fragments); Wang resin; DIC/HOBt/collidine; DIC/HOBt; OSu active esters; conditions: for final HPLC purity / final purity (method not given) / crude purity (method not given): HPLC
[2] = general procedure: hybrid (solid and solution phase) peptide synthesis; CTC resin; DIC/HOBt/collidine; DIC/HOBt; OSu active esters; conditions: whole synthesis
[3] = whole synthesis, scale of the general procedure 200 g CTC resin (0.8 mmol/g)

## His-Ala-Glu-Gly-Thr-Phe-Thr-Ser-Asp-Val-Ser-Ser-Tyr-Leu-Glu-Gly-Gln-Ala-Ala-Lys(Pal-Glu)-Glu-Phe-Ile-Ala-Trp-Leu-Val-Arg-Gly-Arg-Gly-OH
[1]; coupling step
  step yield: 44%
[1]; purification step
  final HPLC purity: >98.0%
[1]; purification step, run 1
  final purity (method not given): more than 97%
  step yield: 40%
[1]; purification step, run 2
  final purity (method not given): more than 98.5%
  step yield: 45% yield
[1]; [3]
  final purity (method not given): 99.4%
[1]; whole synthesis, scale of the general procedure 200 g CTC resin (0.8 mmol/g), run 1
  crude purity (method not given): 64.5%
[1]; whole synthesis, scale of the general procedure 200 g CTC resin (0.8 mmol/g), run 2
  crude purity (method not given): 56.5% purity

## Boc-[His(Trt)]AE(OtBu)G-OH
[2]; HPLC, scale of the general procedure 200 g CTC resin (0.8 mmol/g)
  crude HPLC purity: 71.9%
[1]; [3]
  final HPLC purity: 94.0%
  isolated yield: 46.2%

## H-Gln(Trt)-Ala-Ala-Lys(Pal-Glu-OtBu)-Glu(OtBu)-Phe-Ile-Ala-Trp-Leu-Val-Arg(Pbf)-Gly-Arg(Pbf)-Gly-OH
[2]; scale 1 mmol
  crude mass: 3.12 g
[1]; whole synthesis, scale 1 mmol
  crude yield: 100%

## Fmoc-Thr(tBu)-Phe-Thr(tBu)-Ser(tBu)-Asp(OtBu)-Val-Ser(tBu)-Ser(Ψ^Me,Mepro)-Tyr(tBu)-Leu-Glu(OtBu)-Gly-OH
[2]; scale of the general procedure 200 g CTC resin (0.8 mmol/g)
  crude yield: 45.2%
